Reference: PubChem BioAssay AID540256 (National Center for Advancing Translational Sciences (NCATS), 2011)
Screen size: about 300,000 compounds; about 3,700 (1.2%) were called active. This list was built around the results that the source calls inconclusive (neither active nor inactive); the mix of calls is not that of the screen. Calls come from the whole dose curve; tested in HEK293 cells. Where the call is inconclusive, the potency comes from a doubtful curve fit.

experiment: qHTS for Inhibitors of binding or entry into cells for Lassa Virus; settings: Lassa virus pseudotype entry inhibition, cell reporter; activity change, negative = inhibition: at 37.9 µM (top of the series) unless noted; note: nearly all actives have a fitted effect of over 50% in size
% is set by controls: 0 for no effect and ±100 for the full control effect; potency is the fitted concentration of half-maximal effect.

SMILES | activity change, negative = inhibition | Potency
CCCOc1ccc(N2C(=O)CC(N3CCN(c4ccccc4F)CC3)C2=O)cc1 (configuration not stated) | inactive: 12.7% | –
COc1ccc(/C=C/C(=O)Oc2cccc(/C=N/NC(=O)COc3c(C)cccc3C)c2)cc1 | – | inconclusive: 14.1 µM [inhibitor, single point]
O=C(NN=C1CCCCCCC1)c1ccc(F)cc1 | inactive: 11.1% | –
CCOc1ccc(NC(=O)c2cc(CN3CCCC3)on2)cc1 | – | inconclusive: 35.5 µM [activator, single point]
COc1ccc(C2C(Oc3ccccc3)C(=O)N2c2ccc(C)c(C)c2)cc1OC (configuration not stated) | – | inconclusive: 35.5 µM [inhibitor, single point]
O=C(NCC1COc2ccccc2O1)c1c[nH]c2ccc(S(=O)(=O)N3CCOCC3)cc2c1=O (configuration not stated) | – | inconclusive: 15.8 µM [inhibitor, partial curve, poor fit]
CCc1n(CC(O)COC2CCCCC2)c2ccccc2[n+]1C (configuration not stated) | inactive: -3.8% [at 46.1 µM] | –
Cc1nc(-c2ccc(C(=O)N3CCOCC3)cc2)cs1 | – | inconclusive: 35.5 µM [activator, single point]
Cc1cccc(CN2C(=O)c3ccccc3Sc3ccc(C(=O)NCCc4ccccc4)cc32)c1 | – | inconclusive: 35.5 µM [inhibitor, single point]
COc1cc(NC(=O)c2ccc(Br)o2)ccc1NC(=O)c1ccccc1Cl | – | inconclusive: 14.6 µM [inhibitor, single point]
Cc1cc(NC(=O)CCC(=O)N(Cc2ccco2)C(C(=O)NC2CCCC2)c2ccccc2F)no1 (configuration not stated) | – | inconclusive: 35.5 µM [inhibitor, single point]
COc1ccc(Cc2nc(C(=O)Nc3ccccc3)cs2)cc1 | – | inconclusive: 35.5 µM [inhibitor, single point]
CCn1c(C(=O)N2CCCC(C(=O)NCCc3ccc(C)cc3)C2)cc2sccc21 (configuration not stated) | – | inconclusive: 16.4 µM [inhibitor, single point]
CCC(=O)N1CCc2cc(CNS(=O)(=O)c3ccc(Cl)s3)ccc21 | inactive: -14.2% [at 46.1 µM] | –
COc1cccc(C(C(=O)NC2CCCC2)N(C(=O)c2ccco2)c2ccc(-n3cnnn3)c(C)c2)c1OC (configuration not stated) | inactive: -29.1% [at 46.1 µM] | –
Cc1nc2nc(SCC(=O)c3cccc([N+](=O)[O-])c3)[nH]c2cc1Br | inactive: 28.3% | –
C=CCNC(=S)N/N=C(\C)c1cccnc1 | – | inconclusive: 11.2 µM [inhibitor, partial curve, poor fit]
O=C1NCCc2c1[nH]c1ccccc21 | inactive: 9.41% | –
Cc1cc(C)cc(N(CC(=O)N2CCCC2)S(C)(=O)=O)c1 | – | inconclusive: 35.5 µM [inhibitor, single point]
CCOC(=O)c1ccc(N2CCCCC2)c(NS(=O)(=O)c2ccc(C)cc2)c1 | – | inconclusive: 35.5 µM [inhibitor, single point]
CCN(CC)S(=O)(=O)c1cc(NS(=O)(=O)c2cccc(Cl)c2Cl)ccc1C | – | inconclusive: 14.6 µM [inhibitor, partial curve, poor fit]
O=C(CSc1ccccn1)Nc1ccc2c(c1)oc1ccccc12 | inactive: 17% | –
CC(=O)N/N=C(\C)c1cccc(C(F)(F)F)c1 | inactive: 9.61% | –
COc1cccc(C(=O)Nc2nc(-c3ccc(S(=O)(=O)N4CCOCC4)cc3)cs2)c1 | – | active: 11.2 µM

Compounds listed so far that have an NH in an aromatic ring, in the order listed:
SMILES | activity change, negative = inhibition | Potency
O=C(NCC1COc2ccccc2O1)c1c[nH]c2ccc(S(=O)(=O)N3CCOCC3)cc2c1=O (configuration not stated) | – | inconclusive: 15.8 µM [inhibitor, partial curve, poor fit]
Cc1nc2nc(SCC(=O)c3cccc([N+](=O)[O-])c3)[nH]c2cc1Br | inactive: 28.3% | –
O=C1NCCc2c1[nH]c1ccccc21 | inactive: 9.41% | –

More results follow.

SMILES | activity change, negative = inhibition | Potency
O=C(CSc1nc2ccc(NC(=O)CSc3nnnn3-c3ccccc3)cc2s1)Nc1ccccc1 | – | inconclusive: 3.55 µM [inhibitor, single point]
Nc1ccc2[nH]c(=S)sc2c1 | – | inconclusive: 14.1 µM [activator, single point]
O=C(Nc1ccc2ccccc2n1)c1ccc(Cl)cc1 | – | inconclusive: 35.5 µM [inhibitor, single point]
CC(C)CC(=O)Nc1ccc2ccccc2c1 | inactive: -3.65% | –
Cc1cc2c(cc1C)C(c1cc(Br)ccc1F)CC(=O)N2 (configuration not stated) | – | inconclusive: 10 µM [inhibitor, partial curve, poor fit]
CCOc1ccccc1/C=N/NC(=O)Cc1csc(Nc2cccc(C(F)(F)F)c2)n1 | – | inconclusive: 12.6 µM [inhibitor, partial curve]
Cc1ccc(N2CC(C(=O)Nc3ccc(N(C)C)cc3)CC2=O)cc1Cl (configuration not stated) | – | inconclusive: 1 µM [activator, full curve, poor fit]
Cc1c(Cl)cnc(NC(=O)COC(=O)c2ccc3ncsc3c2)c1Cl | inactive: 9.66% | –
CC(=O)Nc1ccc(OCC(O)CN2CCN(c3ccc(C)c(Cl)c3)CC2)cc1 (configuration not stated) | – | inconclusive: 20.6 µM [inhibitor, single point]
COc1cccc(CN(C)C(=O)c2cccc(OCc3ccccc3)c2)c1 | – | inconclusive: 22.4 µM [inhibitor, single point]
CCOC(=O)N1CCC(NC(=O)c2ccc3c(c2)sc2nc(-c4ccccc4)cn23)CC1 | – | inconclusive: 35.5 µM [inhibitor, single point]
O=C(NC12CC3CC(CC(C3)C1)C2)N1CCN(C(=O)c2ccco2)CC1 | – | inconclusive: 12.6 µM [activator, single point]
Fc1ccc(CNCc2ccccc2Cl)cc1 | inactive: 8.44% [at 46.1 µM] | –
N#Cc1ccc(-c2nnnn2-c2ccc3c(c2)OCO3)cc1 | – | inconclusive: 12.6 µM [activator, partial curve, poor fit]
N#Cc1ccc(OCC(=O)N2CCN(S(=O)(=O)c3cccs3)CC2)cc1 | inactive: -13.8% | –
CCOC(NC(=O)c1ccccc1)C(NC(=O)c1ccccc1)OCC (configuration not stated) | inactive: 7.58% | –
Cc1nnc(N2CCC(C(=O)NCCC(C)C)CC2)c2nn(-c3ccc(Cl)cc3)c(C)c12 | inactive: 3.75% [at 46.1 µM] | –
Cc1ccccc1NC(=O)CCNS(=O)(=O)c1cccc2nsnc12 | inactive: 8.52% | –
CC(OC(=O)CNC(=O)c1ccccc1F)C(=O)Nc1nc(-c2ccccc2)cs1 (configuration not stated) | inactive: -16% | –
O=C(NC1CCCC1)c1ccc2c(=O)n(Cc3ccccc3)c(SCc3cccc(F)c3)nc2c1 | inactive: -14.8% [at 46.1 µM] | –
COc1ccc(-n2c(C)cc(-c3cn4cccc(C)c4n3)c2C)cc1 | – | inconclusive: 29.1 µM [inhibitor, single point]
Cc1csc(NC(=O)c2ccccc2O)n1 | inactive: -7.99% | –
COc1ccc(-c2c(C(C)=O)c(C)nc3sc4c(=N)n(N)cnc4c23)cc1 | – | inconclusive: 25.9 µM [inhibitor, single point]
